# Results taken from the supplement of paper PMC6411743.
# The chains behind the UniProt entries cited, without tags or fusion partners. Where a name states a change or a piece, a line headed by the entry shows the natural chain unless it says otherwise.
# UniProt O75928, whole entry: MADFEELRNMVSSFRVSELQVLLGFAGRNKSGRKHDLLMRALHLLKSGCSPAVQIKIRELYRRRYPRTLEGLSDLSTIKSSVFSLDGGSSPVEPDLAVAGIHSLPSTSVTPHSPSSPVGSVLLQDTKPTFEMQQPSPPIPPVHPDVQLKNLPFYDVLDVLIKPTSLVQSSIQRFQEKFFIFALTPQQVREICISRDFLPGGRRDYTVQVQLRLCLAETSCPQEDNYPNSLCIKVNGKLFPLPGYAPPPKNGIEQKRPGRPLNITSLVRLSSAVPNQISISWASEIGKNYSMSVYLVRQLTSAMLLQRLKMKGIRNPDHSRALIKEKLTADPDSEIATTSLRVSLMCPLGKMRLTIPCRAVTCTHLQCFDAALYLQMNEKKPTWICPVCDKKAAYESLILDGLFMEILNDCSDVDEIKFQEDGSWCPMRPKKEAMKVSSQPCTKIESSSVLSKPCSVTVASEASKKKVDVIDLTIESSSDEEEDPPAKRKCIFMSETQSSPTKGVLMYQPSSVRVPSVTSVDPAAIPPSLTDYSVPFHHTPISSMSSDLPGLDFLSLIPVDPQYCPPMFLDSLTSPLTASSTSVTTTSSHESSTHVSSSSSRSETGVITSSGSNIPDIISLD
# UniProt O75323: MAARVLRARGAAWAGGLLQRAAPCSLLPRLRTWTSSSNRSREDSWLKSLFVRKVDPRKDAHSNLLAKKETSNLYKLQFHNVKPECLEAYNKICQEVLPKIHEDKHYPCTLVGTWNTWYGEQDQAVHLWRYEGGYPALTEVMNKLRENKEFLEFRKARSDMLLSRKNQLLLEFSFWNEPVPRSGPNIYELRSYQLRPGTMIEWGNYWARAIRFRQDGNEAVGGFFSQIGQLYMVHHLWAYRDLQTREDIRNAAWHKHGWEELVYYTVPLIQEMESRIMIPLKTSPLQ
# UniProt O75340: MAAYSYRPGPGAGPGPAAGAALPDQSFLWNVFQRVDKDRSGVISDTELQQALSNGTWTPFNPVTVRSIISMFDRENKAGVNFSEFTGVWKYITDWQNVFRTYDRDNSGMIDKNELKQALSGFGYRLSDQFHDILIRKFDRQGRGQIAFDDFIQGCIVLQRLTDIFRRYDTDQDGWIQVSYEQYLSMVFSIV
# UniProt O76095: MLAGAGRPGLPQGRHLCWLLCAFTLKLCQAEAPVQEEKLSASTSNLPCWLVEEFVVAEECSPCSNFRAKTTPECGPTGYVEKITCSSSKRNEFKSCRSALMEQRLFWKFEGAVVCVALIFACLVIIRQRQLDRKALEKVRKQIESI
# UniProt O75694: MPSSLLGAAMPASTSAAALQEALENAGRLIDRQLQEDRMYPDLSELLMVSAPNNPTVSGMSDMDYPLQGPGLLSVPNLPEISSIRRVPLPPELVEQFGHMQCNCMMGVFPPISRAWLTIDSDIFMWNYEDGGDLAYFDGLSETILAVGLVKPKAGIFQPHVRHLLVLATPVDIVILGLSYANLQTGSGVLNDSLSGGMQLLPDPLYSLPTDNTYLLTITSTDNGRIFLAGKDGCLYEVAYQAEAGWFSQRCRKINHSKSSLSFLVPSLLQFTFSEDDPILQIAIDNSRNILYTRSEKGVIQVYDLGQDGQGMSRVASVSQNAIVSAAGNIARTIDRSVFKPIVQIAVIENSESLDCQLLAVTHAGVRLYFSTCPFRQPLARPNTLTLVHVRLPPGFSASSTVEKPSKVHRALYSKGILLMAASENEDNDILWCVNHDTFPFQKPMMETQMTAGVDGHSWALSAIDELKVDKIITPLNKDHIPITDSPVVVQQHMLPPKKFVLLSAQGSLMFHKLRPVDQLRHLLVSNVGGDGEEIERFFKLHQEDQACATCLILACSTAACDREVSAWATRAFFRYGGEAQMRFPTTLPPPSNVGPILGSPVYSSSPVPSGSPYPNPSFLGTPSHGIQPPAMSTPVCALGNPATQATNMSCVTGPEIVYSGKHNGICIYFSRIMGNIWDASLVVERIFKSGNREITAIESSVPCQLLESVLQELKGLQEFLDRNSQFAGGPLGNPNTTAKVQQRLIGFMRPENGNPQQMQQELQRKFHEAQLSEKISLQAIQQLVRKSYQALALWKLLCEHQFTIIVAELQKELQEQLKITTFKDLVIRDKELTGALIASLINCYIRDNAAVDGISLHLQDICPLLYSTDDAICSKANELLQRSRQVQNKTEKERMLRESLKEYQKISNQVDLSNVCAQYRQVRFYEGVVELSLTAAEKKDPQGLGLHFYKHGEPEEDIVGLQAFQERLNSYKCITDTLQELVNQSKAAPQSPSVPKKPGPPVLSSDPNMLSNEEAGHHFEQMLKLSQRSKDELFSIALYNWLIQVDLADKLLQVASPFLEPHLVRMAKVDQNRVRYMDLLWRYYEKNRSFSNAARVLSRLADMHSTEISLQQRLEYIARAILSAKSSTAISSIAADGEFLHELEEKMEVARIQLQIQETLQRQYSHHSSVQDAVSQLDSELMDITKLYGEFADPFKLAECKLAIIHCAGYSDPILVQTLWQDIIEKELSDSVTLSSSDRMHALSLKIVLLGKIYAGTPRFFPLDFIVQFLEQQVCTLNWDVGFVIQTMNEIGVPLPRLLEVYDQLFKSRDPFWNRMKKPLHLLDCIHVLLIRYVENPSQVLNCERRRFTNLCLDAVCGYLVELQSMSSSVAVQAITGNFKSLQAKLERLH
# UniProt O75369, whole entry: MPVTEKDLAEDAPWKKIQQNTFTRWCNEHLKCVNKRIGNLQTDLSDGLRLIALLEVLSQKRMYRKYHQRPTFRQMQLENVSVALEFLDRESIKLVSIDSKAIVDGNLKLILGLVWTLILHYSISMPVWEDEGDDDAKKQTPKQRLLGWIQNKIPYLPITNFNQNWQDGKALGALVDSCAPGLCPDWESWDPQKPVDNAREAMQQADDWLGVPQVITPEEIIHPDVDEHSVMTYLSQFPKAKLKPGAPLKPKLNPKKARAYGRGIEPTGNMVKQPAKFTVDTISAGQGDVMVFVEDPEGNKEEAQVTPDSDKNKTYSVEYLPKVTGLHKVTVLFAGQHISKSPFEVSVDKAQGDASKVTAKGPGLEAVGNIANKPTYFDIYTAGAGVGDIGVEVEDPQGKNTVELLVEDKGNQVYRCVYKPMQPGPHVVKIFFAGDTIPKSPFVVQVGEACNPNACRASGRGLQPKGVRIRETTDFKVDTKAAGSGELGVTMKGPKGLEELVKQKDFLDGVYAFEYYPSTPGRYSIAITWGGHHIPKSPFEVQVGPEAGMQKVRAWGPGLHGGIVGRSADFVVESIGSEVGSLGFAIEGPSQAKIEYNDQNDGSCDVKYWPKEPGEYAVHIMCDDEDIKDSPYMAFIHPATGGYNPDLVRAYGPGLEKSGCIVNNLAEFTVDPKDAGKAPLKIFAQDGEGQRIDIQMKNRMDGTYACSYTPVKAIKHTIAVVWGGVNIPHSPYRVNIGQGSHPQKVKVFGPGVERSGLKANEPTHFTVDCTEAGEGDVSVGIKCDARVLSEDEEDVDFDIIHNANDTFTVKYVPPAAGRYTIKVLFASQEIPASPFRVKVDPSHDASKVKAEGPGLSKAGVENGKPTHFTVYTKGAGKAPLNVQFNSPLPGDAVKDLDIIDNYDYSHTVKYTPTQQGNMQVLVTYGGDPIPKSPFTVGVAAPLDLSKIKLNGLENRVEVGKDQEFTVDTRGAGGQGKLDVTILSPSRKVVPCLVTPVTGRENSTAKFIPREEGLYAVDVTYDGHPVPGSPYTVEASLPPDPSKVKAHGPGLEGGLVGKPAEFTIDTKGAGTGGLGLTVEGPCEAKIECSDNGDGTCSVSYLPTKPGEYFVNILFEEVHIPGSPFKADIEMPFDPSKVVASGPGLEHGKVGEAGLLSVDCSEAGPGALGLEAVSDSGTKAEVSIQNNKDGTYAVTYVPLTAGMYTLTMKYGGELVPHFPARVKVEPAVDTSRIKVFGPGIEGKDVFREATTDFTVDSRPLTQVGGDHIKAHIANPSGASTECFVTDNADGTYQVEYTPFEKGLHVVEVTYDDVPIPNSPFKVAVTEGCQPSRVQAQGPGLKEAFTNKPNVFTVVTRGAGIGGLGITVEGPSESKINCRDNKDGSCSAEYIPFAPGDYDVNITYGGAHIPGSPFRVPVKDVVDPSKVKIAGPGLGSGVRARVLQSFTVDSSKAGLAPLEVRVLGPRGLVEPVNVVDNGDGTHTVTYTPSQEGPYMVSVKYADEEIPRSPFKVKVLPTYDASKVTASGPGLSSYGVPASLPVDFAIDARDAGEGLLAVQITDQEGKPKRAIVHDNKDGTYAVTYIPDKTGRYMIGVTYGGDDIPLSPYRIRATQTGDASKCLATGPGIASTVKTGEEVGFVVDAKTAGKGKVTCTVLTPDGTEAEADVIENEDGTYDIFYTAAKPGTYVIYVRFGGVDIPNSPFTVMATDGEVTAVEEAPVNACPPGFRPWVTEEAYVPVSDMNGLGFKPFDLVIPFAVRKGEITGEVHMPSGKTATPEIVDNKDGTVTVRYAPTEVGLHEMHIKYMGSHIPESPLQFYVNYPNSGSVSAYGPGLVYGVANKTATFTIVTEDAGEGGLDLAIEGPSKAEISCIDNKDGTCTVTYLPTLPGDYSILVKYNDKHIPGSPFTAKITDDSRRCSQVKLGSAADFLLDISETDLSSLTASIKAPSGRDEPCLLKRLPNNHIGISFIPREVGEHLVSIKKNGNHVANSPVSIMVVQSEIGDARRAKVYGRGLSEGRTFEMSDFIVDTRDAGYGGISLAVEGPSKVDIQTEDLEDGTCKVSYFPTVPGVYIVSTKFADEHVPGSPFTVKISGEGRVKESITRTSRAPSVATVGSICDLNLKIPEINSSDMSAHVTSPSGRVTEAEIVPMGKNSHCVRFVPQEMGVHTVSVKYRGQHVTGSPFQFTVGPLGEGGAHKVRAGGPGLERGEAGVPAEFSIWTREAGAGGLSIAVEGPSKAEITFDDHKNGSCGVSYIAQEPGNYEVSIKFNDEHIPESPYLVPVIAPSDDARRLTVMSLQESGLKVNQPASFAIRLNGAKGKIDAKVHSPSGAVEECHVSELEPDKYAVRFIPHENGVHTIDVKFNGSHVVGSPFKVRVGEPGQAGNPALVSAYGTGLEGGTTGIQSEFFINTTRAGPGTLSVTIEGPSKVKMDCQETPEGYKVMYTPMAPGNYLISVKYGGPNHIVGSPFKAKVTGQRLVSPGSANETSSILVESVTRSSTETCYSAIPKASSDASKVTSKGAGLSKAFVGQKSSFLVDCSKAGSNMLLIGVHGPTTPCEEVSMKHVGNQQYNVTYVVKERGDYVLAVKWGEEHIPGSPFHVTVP
# UniProt O60762: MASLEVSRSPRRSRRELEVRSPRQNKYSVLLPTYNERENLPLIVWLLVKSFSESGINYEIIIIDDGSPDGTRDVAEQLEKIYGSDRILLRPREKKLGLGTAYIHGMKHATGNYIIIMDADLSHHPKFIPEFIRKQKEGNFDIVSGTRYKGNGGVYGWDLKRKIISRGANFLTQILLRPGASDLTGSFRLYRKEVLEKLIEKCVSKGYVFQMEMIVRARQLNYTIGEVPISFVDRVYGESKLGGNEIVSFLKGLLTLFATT
# UniProt O60524: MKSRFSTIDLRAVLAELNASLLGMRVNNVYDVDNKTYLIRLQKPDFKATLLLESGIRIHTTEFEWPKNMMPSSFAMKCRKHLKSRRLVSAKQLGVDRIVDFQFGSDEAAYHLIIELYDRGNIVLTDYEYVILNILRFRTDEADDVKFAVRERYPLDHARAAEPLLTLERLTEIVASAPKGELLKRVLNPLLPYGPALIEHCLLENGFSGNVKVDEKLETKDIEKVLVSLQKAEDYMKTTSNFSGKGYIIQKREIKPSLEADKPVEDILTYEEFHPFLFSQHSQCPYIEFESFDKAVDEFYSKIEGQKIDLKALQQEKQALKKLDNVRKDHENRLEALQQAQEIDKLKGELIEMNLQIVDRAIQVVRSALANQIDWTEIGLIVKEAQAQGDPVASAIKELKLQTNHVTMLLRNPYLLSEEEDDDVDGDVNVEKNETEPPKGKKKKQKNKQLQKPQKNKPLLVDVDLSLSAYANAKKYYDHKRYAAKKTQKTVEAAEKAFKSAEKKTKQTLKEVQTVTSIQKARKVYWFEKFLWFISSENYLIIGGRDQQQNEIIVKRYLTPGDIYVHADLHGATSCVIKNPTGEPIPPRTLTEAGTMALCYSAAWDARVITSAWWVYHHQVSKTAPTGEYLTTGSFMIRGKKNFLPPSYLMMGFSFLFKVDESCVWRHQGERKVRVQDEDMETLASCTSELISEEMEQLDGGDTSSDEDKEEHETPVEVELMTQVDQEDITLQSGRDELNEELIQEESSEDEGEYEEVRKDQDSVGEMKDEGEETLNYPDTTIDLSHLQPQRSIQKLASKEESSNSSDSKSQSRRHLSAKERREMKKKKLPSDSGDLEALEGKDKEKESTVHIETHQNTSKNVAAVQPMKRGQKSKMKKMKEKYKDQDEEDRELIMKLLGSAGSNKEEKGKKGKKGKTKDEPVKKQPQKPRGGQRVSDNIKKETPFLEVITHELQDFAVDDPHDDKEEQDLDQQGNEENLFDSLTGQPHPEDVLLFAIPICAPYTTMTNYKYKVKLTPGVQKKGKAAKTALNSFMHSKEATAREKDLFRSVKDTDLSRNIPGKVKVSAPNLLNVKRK
# ± gives the standard deviation of the averaged measurements. This is a selection; strong and weak results do not stand in their true shares.
# Compound: Nc1ncnc2c1ncn2[C@@H]1O[C@H](COP(=O)(O)OP(=O)(O)NP(=O)(O)O)[C@@H](O)[C@H]1O [adenylyl imidodiphosphate]
# Assay: NP40-soluble protein abundance relative to vehicle (solubility fold change) (ratio); higher = more soluble protein in presence of AMP-PNP
# How it was run: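 Jurkat crude lysate (Dounce-homogenised) was treated with eight concentrations from 0.1 to 10 mM for 10 min at room temperature, then 3 min at 37 °C. It was solubilised with 0.8% NP40 and benzonase (60 min, 4 °C) and ultracentrifuged, and the supernatant was TMT-labelled for LC-MS/MS. Intensities were vsn-normalised, and the value is the fold change against the NP40-processed vehicle per replicate, from three independent experiments.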
Target,NP40-soluble protein abundance (concentration: 1mM),NP40-soluble protein abundance (concentration: 2mM),NP40-soluble protein abundance (concentration: 4mM),NP40-soluble protein abundance (concentration: 6mM),NP40-soluble protein abundance (concentration: 8mM),NP40-soluble protein abundance (concentration: 10mM)
UniProt O95429 and related entries,0.9743 ± 0.0062,1.007 ± 0.0085,0.9778 ± 0.0036,1.002 ± 0.0031,0.989 ± 0.014,0.9849 ± 0.0067
UniProt O95453 and related entries,1.02 ± 0.018,0.975 ± 0.042,0.9979 ± 0.0039,0.991 ± 0.026,0.997 ± 0.016,0.968 ± 0.013
UniProt O75928 and related entries,1 ± 0.034,1.01 ± 0.022,0.959 ± 0.037,0.986 ± 0.049,0.959 ± 0.029,0.989 ± 0.031
UniProt O75460,1.04 ± 0.038,1.02 ± 0.043,1.04 ± 0.019,1.03 ± 0.029,1.02 ± 0.05,1.05 ± 0.058
NMT2 (UniProt O60551),1.01 ± 0.02,1.07 ± 0.047,1.07 ± 0.04,1.09 ± 0.043,1.14 ± 0.054,1.17 ± 0.064
ATRN (UniProt O75882),0.99 ± 0.016,1.04 ± 0.052,1.03 ± 0.025,0.994 ± 0.032,1.01 ± 0.013,0.9981 ± 0.0063
UniProt O60313-2|E5KLJ5,1.01 ± 0.013,0.98 ± 0.071,0.988 ± 0.027,0.968 ± 0.019,0.96 ± 0.027,0.954 ± 0.029
CBR3 (UniProt O75828),1 ± 0.045,0.984 ± 0.022,0.98 ± 0.018,0.983 ± 0.026,0.994 ± 0.031,0.986 ± 0.025
UniProt O60506 and related entries,0.975 ± 0.074,0.973 ± 0.054,0.993 ± 0.08,0.994 ± 0.071,1.01 ± 0.081,1.01 ± 0.077
DDHD2 (UniProt O94830),0.99 ± 0.071,0.932 ± 0.047,0.9754 ± 0.0091,0.974 ± 0.044,0.962 ± 0.04,0.933 ± 0.023
WDHD1 (UniProt O75717),1.01 ± 0.021,0.996 ± 0.012,0.99 ± 0.015,0.963 ± 0.036,0.953 ± 0.016,0.937 ± 0.014
PSMG1 (UniProt O95456),0.979 ± 0.017,0.926 ± 0.07,0.984 ± 0.052,1.02 ± 0.12,1.02 ± 0.081,1 ± 0.073
HUS1 (UniProt O60921),0.993 ± 0.017,0.963 ± 0.035,0.974 ± 0.022,0.991 ± 0.015,0.997 ± 0.019,0.974 ± 0.013
UniProt O75865 and related entries,0.971 ± 0.03,0.906 ± 0.064,0.957 ± 0.051,0.994 ± 0.06,1.01 ± 0.048,0.979 ± 0.028
DNAJA2 (UniProt O60884),0.963 ± 0.035,0.966 ± 0.023,0.908 ± 0.032,0.904 ± 0.046,0.88 ± 0.04,0.895 ± 0.056
UniProt O95197 and related entries,0.983 ± 0.035,1 ± 0.1,1.01 ± 0.057,0.985 ± 0.099,0.969 ± 0.15,0.988 ± 0.15
DGAT1 (UniProt O75907),0.923 ± 0.013,0.9417 ± 0.0028,0.959 ± 0.039,0.9755 ± 0.0015,0.983 ± 0.054,0.936 ± 0.062
UniProt O75367 and related entries,1.01 ± 0.066,1 ± 0.055,1.05 ± 0.075,1.15 ± 0.034,1.26 ± 0.092,1.44 ± 0.049
UniProt O75323,0.989 ± 0.024,0.925 ± 0.076,0.9452 ± 0.0027,0.9553 ± 0.0082,0.978 ± 0.014,0.93 ± 0.0087
PDCD6 (UniProt O75340),0.985 ± 0.036,0.928 ± 0.036,1.04 ± 0.045,1.07 ± 0.12,1.18 ± 0.052,1.1 ± 0.048
UniProt O75190-2|A0A0J9YX62|O75190 and related entries,0.872 ± 0.036,0.86 ± 0.043,0.845 ± 0.056,0.825 ± 0.052,0.821 ± 0.023,0.778 ± 0.062

Target,NP40-soluble protein abundance (concentration: 1mM),NP40-soluble protein abundance (concentration: 2mM),NP40-soluble protein abundance (concentration: 4mM),NP40-soluble protein abundance (concentration: 6mM),NP40-soluble protein abundance (concentration: 8mM),NP40-soluble protein abundance (concentration: 10mM)
CIAO1 (UniProt O76071),1.02 ± 0.021,0.986 ± 0.024,1.01 ± 0.053,1.01 ± 0.044,1 ± 0.021,0.978 ± 0.028
SMPD2 (UniProt O60906),1.01 ± 0.023,1.02 ± 0.043,1.03 ± 0.047,1.01 ± 0.015,0.996 ± 0.027,1.01 ± 0.039
SAP30 (UniProt O75446),0.96 ± 0.04,0.982 ± 0.086,0.937 ± 0.052,1.06 ± 0.07,1.03 ± 0.044,1.07 ± 0.028
UniProt O75822 and related entries,0.876 ± 0.042,0.941 ± 0.07,0.858 ± 0.031,0.949 ± 0.026,0.957 ± 0.029,0.99 ± 0.015
UniProt O95466-2|O95466-3,1.01 ± 0.022,1.04 ± 0.049,1 ± 0.037,0.9896 ± 0.0097,0.951 ± 0.026,0.983 ± 0.019
UniProt O76095 and related entries,0.988 ± 0.039,0.981 ± 0.037,0.978 ± 0.038,0.989 ± 0.018,0.976 ± 0.011,0.95 ± 0.025
UniProt O60861 and related entries,1.06 ± 0.024,1.08 ± 0.067,1.05 ± 0.044,1.05 ± 0.011,1.04 ± 0.043,1.05 ± 0.029
UniProt O75419 and related entries,0.974 ± 0.04,0.939 ± 0.044,0.974 ± 0.057,0.978 ± 0.028,0.994 ± 0.01,0.959 ± 0.019
MCM3AP (UniProt O60318),0.987 ± 0.055,0.995 ± 0.016,1.01 ± 0.028,1.02 ± 0.028,0.9948 ± 0.0076,1.06 ± 0.019
UniProt O60784 and related entries,1.02 ± 0.03,1.07 ± 0.11,1.07 ± 0.032,0.984 ± 0.024,0.974 ± 0.024,0.983 ± 0.052
UniProt O95628-10|O95628-4|O95628-8|O95628-9|O95628 and related entries,1.02 ± 0.024,1.01 ± 0.065,0.986 ± 0.016,1.03 ± 0.015,1 ± 0.015,0.985 ± 0.027
NUP155 (UniProt O75694),0.983 ± 0.046,0.919 ± 0.062,1 ± 0.025,0.98 ± 0.039,1.01 ± 0.035,1 ± 0.023
UniProt O75369-8|O75369-9|O75369 and related entries,1.01 ± 0.02,1.04 ± 0.029,0.99 ± 0.02,0.987 ± 0.03,0.951 ± 0.016,0.968 ± 0.034
STAM2 (UniProt O75886),1.01 ± 0.032,1.02 ± 0.064,0.989 ± 0.033,1 ± 0.015,0.967 ± 0.021,0.995 ± 0.04
UniProt O60762 and related entries,0.92 ± 0.019,0.858 ± 0.092,0.992 ± 0.09,1.02 ± 0.065,1.08 ± 0.037,1.02 ± 0.087
TAF5L (UniProt O75529),0.995 ± 0.014,0.979 ± 0.02,0.996 ± 0.026,1.02 ± 0.038,1.01 ± 0.032,1.01 ± 0.07
ATP6V1G1 (UniProt O75348),0.978 ± 0.043,0.988 ± 0.026,0.892 ± 0.059,0.829 ± 0.074,0.803 ± 0.023,0.803 ± 0.026
SNRNP200 (UniProt O75643),0.979 ± 0.017,0.911 ± 0.12,0.982 ± 0.071,1.01 ± 0.063,1.06 ± 0.085,1.04 ± 0.13
UniProt O75525 and related entries,1.04 ± 0.03,1.05 ± 0.048,1.07 ± 0.036,1.1 ± 0.058,1.11 ± 0.091,1.11 ± 0.091
UniProt O60287 and related entries,1.01 ± 0.02,1.03 ± 0.039,1.07 ± 0.043,1.14 ± 0.058,1.19 ± 0.059,1.22 ± 0.076
UniProt O60524 and related entries,1.07 ± 0.03,1.08 ± 0.018,1.11 ± 0.042,1.13 ± 0.022,1.15 ± 0.014,1.18 ± 0.044

# Nothing new here: entries from further up.
Target,NP40-soluble protein abundance (concentration: 1mM),NP40-soluble protein abundance (concentration: 2mM),NP40-soluble protein abundance (concentration: 4mM),NP40-soluble protein abundance (concentration: 6mM),NP40-soluble protein abundance (concentration: 8mM),NP40-soluble protein abundance (concentration: 10mM)
SMPD2 (UniProt O60906),1.01 ± 0.023,1.02 ± 0.043,1.03 ± 0.047,1.01 ± 0.015,0.996 ± 0.027,1.01 ± 0.039
SAP30 (UniProt O75446),0.96 ± 0.04,0.982 ± 0.086,0.937 ± 0.052,1.06 ± 0.07,1.03 ± 0.044,1.07 ± 0.028
UniProt O75822 and related entries,0.876 ± 0.042,0.941 ± 0.07,0.858 ± 0.031,0.949 ± 0.026,0.957 ± 0.029,0.99 ± 0.015
